B1: sp|P0AE52|BCP_ECOLI (protein, UniProt P0AE52 1-156, looked up)
Peroxiredoxin Bcp: MNPLKAGDIAPKFSLPDQDGEQVNLTDFQGQRVLVYFYPKAMTPGCTVQACGLRDNMDELKKAGVDVLGISTDKPEKLSRFAEKELLNFTLLSDEDHQVCEQFGVWGEKSFMGKTYDGIHRISFLIDADGKIEHVFDDFKTSNHHDVVLNWLKEHA
B2: sp|P0AC69|GLRX4_ECOLI (protein, UniProt P0AC69 1-115, looked up)
Glutaredoxin 4: MSTTIEKIQRQIAENPILLYMKGSPKLPSCGFSAQAVQALAACGERFAYVDILQNPDIRAELPKYANWPTFPQLWVDGELVGGCDIVIEMYQRGELQQLIKETAAKYKSEEPDAE
B3: sp|P76403|YEGQ_ECOLI (protein, UniProt P76403 1-453, looked up)
tRNA hydroxylation protein P: MFKPELLSPAGTLKNMRYAFAYGADAVYAGQPRYSLRVRNNEFNHENLQLGINEAHALGKKFYVVVNIAPHNAKLKTFIRDLKPVVEMGPDALIMSDPGLIMLVREHFPEMPIHLSVQANAVNWATVKFWQQMGLTRVILSRELSLEEIEEIRNQVPDMEIEIFVHGALCMAYSGRCLLSGYINKRDPNQGTCTNACRWEYNVQEGKEDDVGNIVHKYEPIPVQNVEPTLGIGAPTDKVFMIEEAQRPGEYMTAFEDEHGTYIMNSKDLRAIAHVERLTKMGVHSLKIEGRTKSFYYCARTAQVYRKAIDDAAAGKPFDTSLLETLEGLAHRGYTEGFLRRHTHDDYQNYEYGYSVSDRQQFVGEFTGERKGDLAAVAVKNKFSVGDSLELMTPQGNINFTLEHMENAKGEAMPIAPGDGYTVWLPVPQDLELNYALLMRNFSGETTRNPHGK
B4: sp|P0A9P0|DLDH__ECOLI (protein, UniProt P0A9P0 2-474, looked up)
Dihydrolipoyl dehydrogenase: STEIKTQVVVLGAGPAGYSAAFRCADLGLETVIVERYNTLGGVCLNVGCIPSKALLHVAKVIEEAKALAEHGIVFGEPKTDIDKIRTWKEKVINQLTGGLAGMAKGRKVKVVNGLGKFTGANTLEVEGENGKTVINFDNAIIAAGSRPIQLPFIPHEDPRIWDSTDALELKEVPERLLVMGGGIIGLEMGTVYHALGSQIDVVEMFDQVIPAADKDIVKVFTKRISKKFNLMLETKVTAVEAKEDGIYVTMEGKKAPAEPQRYDAVLVAIGRVPNGKNLDAGKAGVEVDDRGFIRVDKQLRTNVPHIFAIGDIVGQPMLAHKGVHEGHVAAEVIAGKKHYFDPKVIPSIAYTEPEVAWVGLTEKEAKEKGISYETATFPWAASGRAIASDCADGMTKLIFDKESHRVIGGAIVGTNGGELLGEIGLAIEMGCDAEDIALTIHAHPTLHESVGLAAEVFEGSITDLPNPKAKKK
B5: sp|P45578|LUXS_ECOLI (protein, UniProt P45578 2-171, looked up)
S-ribosylhomocysteine lyase: PLLDSFTVDHTRMEAPAVRVAKTMNTPHGDAITVFDLRFCVPNKEVMPERGIHTLEHLFAGFMRNHLNGNGVEIIDISPMGCRTGFYMSLIGTPDEQRVADAWKAAMEDVLKVQDQNQIPELNVYQCGTYQMHSLQEAQDIARSILERDVRINSNEELALPKEKLQELHI
B6: sp|P37188|PTKB_ECOLI (protein, UniProt P37188 1-94, looked up)
PTS system …: MKRKIIVACGGAVATSTMAAEEIKELCQNHNIPVELIQCRVNEIETYMDGVHLICTTAKVDRSFGDIPLVHGMPFISGIGIEALQNKILTILQG
B7: sp|P0A707|IF3_ECOLI (protein, UniProt P0A707 1-180, looked up)
Translation initiation factor …: MKGGKRVQTARPNRINGEIRAQEVRLTGLEGEQLGIVSLREALEKAEEAGVDLVEISPNAEPPVCRIMDYGKFLYEKSKSSKEQKKKQKVIQVKEIKFRPGTDEGDYQVKLRSLIRFLEEGDKAKITLRFRGREMAHQQIGMEVLNRVKDDLQELAVVESFPTKIEGRQMIMVLAPKKKQ

In this data set the test system is E. coli K-12 proteome. As to conditions: S-sulfhydrated protein pull-down, TMT LC-MS3; ΔdecR E. coli lysate.
Regarding B1, the ΔdecR was 1.81. In the case of B2 it was 0.84; in that of B3, 1.32. Regarding B4, the ΔdecR was 1.40. The molecule B5 returned a ΔdecR of 1.40. In the case of B6 it was 0.87; in that of B7, 1.18.

(Values after patent publication US20210260009A1, “METHODS AND COMPOSITIONS FOR THE TREATMENT OF A RENAL DISEASE” (priority 2020, published 2021).)
